No constants are given. Whether binding was seen depends on the method and setting. Binding seen in cells or lysates may run through a third protein. These calls come from enrichment with a bait or labelling near it, and not all partners need be listed.

Drawing on doi:10.1101/871517, this text covers binding for one molecule.

For assay [1], the target named is BirA*-RAB18, Q9NP72. The assay can be described thus: proximity labelling. As to conditions: remark: other sources report otherwise.
The target in assay [2] is BirA*-RAB18, Q9NP72. Description: proximity labelling. As to conditions: remark: other sources report otherwise. This is another data set of the same source.

B1: SPG20, Q8N0X7 1-666 (protein)
chain: MEQEPQNGEPAEIKIIREAYKKAFLFVNKGLNTDELGQKEEAKNYYKQGIGHLLRGISISSKESEHTGPGWESARQMQQKMKETLQNVRTRLEILEKGLATSLQNDLQEVPKLYPEFPPKDMCEKLPEPQSFSSAPQHAEVNGNTSTPSAGAVAAPASLSLPSQSCPAEAPPAYTPQAAEGHYTVSYGTDSGEFSSVGEEFYRNHSQPPPLETLGLDADELILIPNGVQIFFVNPAGEVSAPSYPGYLRIVRFLDNSLDTVLNRPPGFLQVCDWLYPLVPDRSPVLKCTAGAYMFPDTMLQAAGCFVGVVLSSELPEDDRELFEDLLRQMSDLRLQANWNRAEEENEFQIPGRTRPSSDQLKEASGTDVKQLDQGNKDVRHKGKRGKRAKDTSSEEVNLSHIVPCEPVPEEKPKELPEWSEKVAHNILSGASWVSWGLVKGAEITGKAIQKGASKLRERIQPEEKPVEVSPAVTKGLYIAKQATGGAAKVSQFLVDGVCTVANCVGKELAPHVKKHGSKLVPESLKKDKDGKSPLDGAMVVAASSVQGFSTVWQGLECAAKCIVNNVSAETVQTVRYKYGYNAGEATHHAVDSAVNVGVTAYNINNIGIKAMVKKTATQTGHTLLEDYQIVDNSQRENQEGAANVNVRGEKDEQTKEVKEAKKKDK
Take B1: the binding result was “binds” in the assay with BirA*-RAB18, Q9NP72 [1] and “binds” with BirA*-RAB18, Q9NP72 [2].
